Assay results as given in patent publication US5783558A (Boehringer Mannheim GmbH, priority 1992, dated 1998).

Legend:
[1] = Fmoc solid-phase peptide synthesis; cellulose filter paper; Pentafluorophenyl esters with HOBt; HOBt/DICD in filter method; details: whole synthesis, scale 10 μMol
[2] = Fmoc solid-phase peptide synthesis; Fmoc-Val-NovaSyn-PA 500 (0.37 mMol/g) for hPTH(1-35); Fmoc-Ala-NovaSyn-PA 500 (0.35 mMol/g) for hPTH(1-36); cellulose fi; Pentafluorophenyl esters with HOBt; HOBt/DICD in filter method; details: whole synthesis, scale of the general procedure 10 μMol (filter method)
[3] = general procedure: Fmoc solid-phase peptide synthesis; Fmoc-Val-NovaSyn-PA 500 (0.37 mMol/g) for hPTH(1-35); Fmoc-Ala-NovaSyn-PA 500 (0.35 mMol/g) for hPTH(1-36); cellulose fi; Pentafluorophenyl esters with HOBt; HOBt/DICD in filter method; details: whole synthesis, area percent, scale of the general procedure 10 μMol (filter method)

| Substance | crude mass [1] [mg] | crude yield [2] [%] | crude HPLC purity [3] [%] |
| --- | --- | --- | --- |
| Ser-Val-Ser-Glu-Ile-Gln-Leu-Met-His-Asn-Leu-Gly-Lys-His-Leu-Asn-Ser-Met-Glu-Arg-Val-Glu-Trp-Leu-Arg-Lys-Lys-Leu-Gln-Asp-Val-His-Asn-Phe-Val-Ala (SVSEIQLMHNLGKHLNSMERVEWLRKKLQDVHNFVA) | 34 | 67 |  |
| Ser-Val-Ser-Glu-Ile-Gln-Leu-Met-His-Asn-Leu-Gly-Lys-His-Leu-Asn-Ser-Met-Glu-Arg-Val-Glu-Trp-Leu-Arg-Lys-Lys-Leu-Gln-Asp-Val-His-Asn-Phe-Val (SVSEIQLMHNLGKHLNSMERVEWLRKKLQDVHNFV) | 43 | 71 | 35 |
